# From the supplement of paper PMC12067093, “Discovery and optimisation of a covalent ligand for TRIM25 and its application to targeted protein ubiquitination” (Chemical Science, 2025)
# The chains behind the UniProt entries cited, without tags or fusion partners. Where a name states a change or a piece, a line headed by the entry shows the natural chain unless it says otherwise.
# UniProt Q96EK7: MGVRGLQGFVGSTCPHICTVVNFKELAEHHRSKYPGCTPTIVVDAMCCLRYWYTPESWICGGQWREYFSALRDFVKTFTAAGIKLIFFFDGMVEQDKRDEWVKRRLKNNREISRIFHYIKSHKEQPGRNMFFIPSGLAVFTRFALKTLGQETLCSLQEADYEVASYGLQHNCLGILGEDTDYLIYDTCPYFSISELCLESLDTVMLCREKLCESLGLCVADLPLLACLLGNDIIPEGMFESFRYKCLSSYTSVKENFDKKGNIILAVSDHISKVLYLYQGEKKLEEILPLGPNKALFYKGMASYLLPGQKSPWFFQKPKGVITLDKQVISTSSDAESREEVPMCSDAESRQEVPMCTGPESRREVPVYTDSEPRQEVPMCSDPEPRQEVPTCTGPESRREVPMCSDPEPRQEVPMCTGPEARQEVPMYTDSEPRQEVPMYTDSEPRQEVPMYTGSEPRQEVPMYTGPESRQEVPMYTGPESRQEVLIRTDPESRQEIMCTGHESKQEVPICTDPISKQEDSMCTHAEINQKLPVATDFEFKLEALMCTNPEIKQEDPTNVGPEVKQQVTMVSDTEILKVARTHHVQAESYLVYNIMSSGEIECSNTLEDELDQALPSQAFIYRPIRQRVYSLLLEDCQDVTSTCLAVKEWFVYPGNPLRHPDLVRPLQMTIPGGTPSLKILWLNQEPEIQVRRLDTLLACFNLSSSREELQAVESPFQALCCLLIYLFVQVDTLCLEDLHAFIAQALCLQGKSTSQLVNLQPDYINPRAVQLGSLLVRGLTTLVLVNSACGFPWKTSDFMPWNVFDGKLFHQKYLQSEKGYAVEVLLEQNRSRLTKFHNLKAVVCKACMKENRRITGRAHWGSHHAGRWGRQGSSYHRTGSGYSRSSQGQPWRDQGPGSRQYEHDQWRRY
# UniProt P14921: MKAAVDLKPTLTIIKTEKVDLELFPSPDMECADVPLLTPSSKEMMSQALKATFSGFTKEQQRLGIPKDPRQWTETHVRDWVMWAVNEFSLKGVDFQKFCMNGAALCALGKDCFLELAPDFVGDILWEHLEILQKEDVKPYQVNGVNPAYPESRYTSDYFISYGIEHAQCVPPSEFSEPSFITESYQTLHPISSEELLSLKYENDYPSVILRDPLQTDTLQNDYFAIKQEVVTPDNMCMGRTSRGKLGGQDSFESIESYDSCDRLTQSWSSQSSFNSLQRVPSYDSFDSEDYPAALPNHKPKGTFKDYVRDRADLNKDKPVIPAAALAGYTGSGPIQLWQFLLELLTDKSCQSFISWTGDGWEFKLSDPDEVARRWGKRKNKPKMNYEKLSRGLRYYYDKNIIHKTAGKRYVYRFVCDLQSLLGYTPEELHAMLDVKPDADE
# UniProt P38117: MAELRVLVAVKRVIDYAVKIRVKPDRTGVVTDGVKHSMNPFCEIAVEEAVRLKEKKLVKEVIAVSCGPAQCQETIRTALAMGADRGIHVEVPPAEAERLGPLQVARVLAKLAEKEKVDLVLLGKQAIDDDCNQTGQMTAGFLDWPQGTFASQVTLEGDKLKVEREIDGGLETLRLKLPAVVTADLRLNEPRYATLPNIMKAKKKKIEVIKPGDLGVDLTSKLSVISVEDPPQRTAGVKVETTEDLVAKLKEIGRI
# UniProt Q5FWF5: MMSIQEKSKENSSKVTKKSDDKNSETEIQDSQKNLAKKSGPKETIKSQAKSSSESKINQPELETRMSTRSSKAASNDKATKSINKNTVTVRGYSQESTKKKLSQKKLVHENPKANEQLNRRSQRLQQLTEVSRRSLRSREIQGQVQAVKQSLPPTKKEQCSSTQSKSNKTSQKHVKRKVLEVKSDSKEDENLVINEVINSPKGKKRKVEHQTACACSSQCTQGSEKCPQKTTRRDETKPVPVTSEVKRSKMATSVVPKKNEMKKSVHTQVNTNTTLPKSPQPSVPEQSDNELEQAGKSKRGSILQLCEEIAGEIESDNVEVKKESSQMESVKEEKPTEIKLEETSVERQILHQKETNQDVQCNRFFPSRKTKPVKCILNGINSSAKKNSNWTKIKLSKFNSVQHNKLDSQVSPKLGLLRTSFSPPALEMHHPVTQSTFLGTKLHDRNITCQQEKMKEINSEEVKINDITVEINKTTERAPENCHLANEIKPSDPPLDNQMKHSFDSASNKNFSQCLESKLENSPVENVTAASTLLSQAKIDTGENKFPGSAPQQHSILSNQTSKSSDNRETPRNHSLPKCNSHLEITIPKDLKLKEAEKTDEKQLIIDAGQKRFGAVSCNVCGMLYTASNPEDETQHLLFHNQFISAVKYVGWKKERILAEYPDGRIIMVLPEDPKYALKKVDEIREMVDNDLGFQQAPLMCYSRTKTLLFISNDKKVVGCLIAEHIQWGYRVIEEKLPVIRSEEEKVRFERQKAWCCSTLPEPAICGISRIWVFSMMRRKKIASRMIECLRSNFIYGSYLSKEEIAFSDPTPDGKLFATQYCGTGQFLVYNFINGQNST
# UniProt P15311, whole entry, looked up: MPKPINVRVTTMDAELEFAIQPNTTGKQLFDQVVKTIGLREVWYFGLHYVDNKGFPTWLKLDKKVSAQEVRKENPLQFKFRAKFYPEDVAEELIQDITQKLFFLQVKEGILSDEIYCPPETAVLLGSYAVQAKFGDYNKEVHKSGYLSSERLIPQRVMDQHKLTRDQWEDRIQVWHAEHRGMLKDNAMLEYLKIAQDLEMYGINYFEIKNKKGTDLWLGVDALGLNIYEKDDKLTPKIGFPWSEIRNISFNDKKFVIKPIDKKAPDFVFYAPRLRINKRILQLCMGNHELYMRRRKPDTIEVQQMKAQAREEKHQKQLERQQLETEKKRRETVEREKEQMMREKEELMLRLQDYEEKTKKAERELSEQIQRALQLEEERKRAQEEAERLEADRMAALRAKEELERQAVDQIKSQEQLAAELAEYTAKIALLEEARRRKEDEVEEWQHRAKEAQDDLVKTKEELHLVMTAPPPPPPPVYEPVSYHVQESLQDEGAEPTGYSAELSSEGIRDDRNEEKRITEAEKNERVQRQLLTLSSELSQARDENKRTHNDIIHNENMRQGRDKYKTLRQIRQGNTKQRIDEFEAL
# UniProt O60427: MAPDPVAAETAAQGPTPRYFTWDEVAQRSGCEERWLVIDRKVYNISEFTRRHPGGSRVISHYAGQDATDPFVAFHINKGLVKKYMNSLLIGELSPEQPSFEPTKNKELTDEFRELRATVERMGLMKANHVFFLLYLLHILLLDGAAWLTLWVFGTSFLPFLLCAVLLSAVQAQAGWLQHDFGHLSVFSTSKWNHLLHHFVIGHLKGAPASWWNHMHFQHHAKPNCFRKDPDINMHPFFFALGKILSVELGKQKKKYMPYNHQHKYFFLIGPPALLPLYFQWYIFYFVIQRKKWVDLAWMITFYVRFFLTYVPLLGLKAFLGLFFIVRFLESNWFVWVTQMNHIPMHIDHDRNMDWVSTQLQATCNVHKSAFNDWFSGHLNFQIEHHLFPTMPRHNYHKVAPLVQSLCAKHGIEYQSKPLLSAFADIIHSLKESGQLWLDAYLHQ
# UniProt O00471: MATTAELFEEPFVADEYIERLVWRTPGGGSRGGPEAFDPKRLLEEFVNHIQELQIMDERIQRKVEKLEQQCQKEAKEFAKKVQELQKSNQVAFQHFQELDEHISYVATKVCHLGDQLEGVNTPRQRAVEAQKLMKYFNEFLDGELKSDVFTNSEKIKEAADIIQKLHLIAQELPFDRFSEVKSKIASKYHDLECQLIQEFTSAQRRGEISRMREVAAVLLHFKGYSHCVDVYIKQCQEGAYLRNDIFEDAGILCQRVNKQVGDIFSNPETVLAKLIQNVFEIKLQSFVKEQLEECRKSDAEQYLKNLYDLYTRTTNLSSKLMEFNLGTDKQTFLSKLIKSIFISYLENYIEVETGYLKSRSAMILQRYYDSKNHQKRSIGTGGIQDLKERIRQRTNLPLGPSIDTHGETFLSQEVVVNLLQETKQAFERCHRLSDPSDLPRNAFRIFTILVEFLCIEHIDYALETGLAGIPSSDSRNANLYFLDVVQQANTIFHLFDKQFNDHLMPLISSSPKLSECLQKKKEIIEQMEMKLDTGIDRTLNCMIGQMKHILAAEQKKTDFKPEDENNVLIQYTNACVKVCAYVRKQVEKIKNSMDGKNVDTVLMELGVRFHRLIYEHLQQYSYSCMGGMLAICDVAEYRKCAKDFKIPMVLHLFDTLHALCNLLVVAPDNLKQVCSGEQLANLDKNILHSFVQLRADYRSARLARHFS
# UniProt Q5RKV6, whole entry, looked up: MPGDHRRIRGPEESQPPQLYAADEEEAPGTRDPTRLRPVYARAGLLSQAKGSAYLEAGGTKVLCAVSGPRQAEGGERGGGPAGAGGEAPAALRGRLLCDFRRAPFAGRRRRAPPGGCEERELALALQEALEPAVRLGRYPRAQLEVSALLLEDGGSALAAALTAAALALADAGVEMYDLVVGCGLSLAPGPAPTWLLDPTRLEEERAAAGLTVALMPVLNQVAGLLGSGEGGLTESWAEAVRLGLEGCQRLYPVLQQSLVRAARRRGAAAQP
# UniProt Q9NV70: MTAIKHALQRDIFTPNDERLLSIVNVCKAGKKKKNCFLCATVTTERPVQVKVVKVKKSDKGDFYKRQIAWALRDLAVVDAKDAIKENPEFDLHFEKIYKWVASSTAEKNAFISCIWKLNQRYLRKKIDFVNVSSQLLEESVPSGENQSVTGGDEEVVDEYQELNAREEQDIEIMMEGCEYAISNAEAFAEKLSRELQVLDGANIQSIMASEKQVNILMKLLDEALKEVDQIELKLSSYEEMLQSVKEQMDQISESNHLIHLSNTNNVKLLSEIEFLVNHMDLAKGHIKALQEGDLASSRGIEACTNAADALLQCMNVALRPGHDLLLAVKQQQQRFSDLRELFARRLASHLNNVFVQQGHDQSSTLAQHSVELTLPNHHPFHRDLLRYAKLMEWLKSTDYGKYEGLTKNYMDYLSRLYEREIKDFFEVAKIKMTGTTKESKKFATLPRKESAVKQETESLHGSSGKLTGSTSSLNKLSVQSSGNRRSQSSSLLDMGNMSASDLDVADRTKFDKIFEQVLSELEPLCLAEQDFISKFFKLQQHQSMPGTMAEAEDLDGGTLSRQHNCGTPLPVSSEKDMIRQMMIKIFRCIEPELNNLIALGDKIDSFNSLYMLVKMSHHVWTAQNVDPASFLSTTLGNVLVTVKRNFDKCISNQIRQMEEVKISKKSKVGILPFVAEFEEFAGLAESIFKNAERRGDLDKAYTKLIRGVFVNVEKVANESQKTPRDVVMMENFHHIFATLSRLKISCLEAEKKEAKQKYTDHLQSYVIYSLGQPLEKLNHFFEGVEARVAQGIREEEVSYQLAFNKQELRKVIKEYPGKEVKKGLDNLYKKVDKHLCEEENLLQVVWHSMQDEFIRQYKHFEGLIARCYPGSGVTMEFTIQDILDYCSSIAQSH
# UniProt Q15024, whole entry, looked up: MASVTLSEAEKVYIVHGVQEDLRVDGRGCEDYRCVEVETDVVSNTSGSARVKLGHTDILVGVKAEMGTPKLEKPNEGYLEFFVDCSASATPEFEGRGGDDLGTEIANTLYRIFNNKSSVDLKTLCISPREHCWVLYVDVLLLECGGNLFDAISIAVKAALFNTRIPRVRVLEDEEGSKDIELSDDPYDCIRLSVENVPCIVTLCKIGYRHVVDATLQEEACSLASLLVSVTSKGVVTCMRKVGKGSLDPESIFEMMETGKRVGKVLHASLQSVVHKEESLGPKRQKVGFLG
# UniProt Q9UPT5: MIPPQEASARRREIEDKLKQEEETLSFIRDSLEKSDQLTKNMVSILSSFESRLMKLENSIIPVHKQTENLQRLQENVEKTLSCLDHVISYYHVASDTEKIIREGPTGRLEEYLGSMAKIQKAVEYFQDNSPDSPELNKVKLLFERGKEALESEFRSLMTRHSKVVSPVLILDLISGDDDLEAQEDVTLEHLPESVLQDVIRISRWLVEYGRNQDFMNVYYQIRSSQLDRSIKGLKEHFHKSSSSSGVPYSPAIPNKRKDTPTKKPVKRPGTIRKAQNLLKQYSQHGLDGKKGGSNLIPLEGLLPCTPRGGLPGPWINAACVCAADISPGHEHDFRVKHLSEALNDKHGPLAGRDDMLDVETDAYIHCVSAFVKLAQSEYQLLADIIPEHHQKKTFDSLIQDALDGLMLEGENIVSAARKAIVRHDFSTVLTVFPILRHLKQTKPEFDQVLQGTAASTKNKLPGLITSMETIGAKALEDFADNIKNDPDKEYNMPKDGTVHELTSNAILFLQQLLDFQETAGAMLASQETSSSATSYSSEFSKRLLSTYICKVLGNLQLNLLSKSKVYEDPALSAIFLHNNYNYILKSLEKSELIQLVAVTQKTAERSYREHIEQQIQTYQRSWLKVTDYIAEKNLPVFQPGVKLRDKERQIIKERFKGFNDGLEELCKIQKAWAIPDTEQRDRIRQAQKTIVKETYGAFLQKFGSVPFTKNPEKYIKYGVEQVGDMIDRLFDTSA
# This is one part of the list.
# Compound: CC1Cc2ccccc2N1C(=O)C1CCCN(C1)C(=O)CCl (mixture of isomers) [TRIM25 ligand 11 (diastereomer mixture)]
# Assay: probe-labelled cysteine peptide fold change vs DMSO (competition) (log2 fold change); higher = less target engagement (more negative = stronger competition)
# Conditions: THP-1, incubation time: 4 h
# 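Also: competitive chemoproteomic profiling in live THP-1 cells with an iodoacetamide desthiobiotin (IA-DTB) probe, comparing probe-labelled peptide intensities in compound-treated cells against DMSO-treated controls.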
Target,probe-labelled cysteine peptide fold change (10 µM),probe-labelled cysteine peptide fold change (50 µM)
FAM120B_Q96EK7_547_LEALMCTNPEIK (UniProt Q96EK7),0.23,-0.0523
ERMP1_Q7Z2K6_222_DGAQHAVLANCHFDSVANSPGASDDAVSCSVMLEVLR (UniProt Q7Z2K6),0.537,0.318
ETS1_P14921_237_QEVVTPDNMCMGR (UniProt P14921),-0.0223,-0.225
ETFB_P38117_66+71_EVIAVSCGPAQCQETIR (UniProt P38117),0.198,0.0442
ESCO1_Q5FWF5_160_EQCSSTQSK (UniProt Q5FWF5),-0.145,-0.00324
EZR_P15311_284_ILQLCMGNHELYMRR (UniProt P15311),-0.0493,0.346
FADS1_O60427_407_VAPLVQSLCAK (UniProt O60427),-0.135,-0.124
ESCO2_Q56NI9_392_SCGMIYTASNPEDEMQHVQHHHR (UniProt Q56NI9),0.271,0.504
EXOC5_O00471_194_YHDLECQLIQEFTSAQR (UniProt O00471),0.139,0.157
ERCC3_P19447_403_DKPIGCSVAISTYSMLGHTTK (UniProt P19447),0.005,0.000247
EXOSC6_Q5RKV6_117_APPGGCEERELALALQEALEPAVR (UniProt Q5RKV6),-0.0695,-0.408
EXOC1_Q9NV70_27_LLSIVNVCK (UniProt Q9NV70),0.0577,-0.114
EXOSC7_Q15024_189_VLEDEEGSKDIELSDDPYDCIR (UniProt Q15024),-0.181,-0.152
EXOC7_Q9UPT5_667_GFNDGLEELCK (UniProt Q9UPT5),-0.0337,-0.054

# Random excerpt: two entries already listed, in no set order.
Target,probe-labelled cysteine peptide fold change (10 µM),probe-labelled cysteine peptide fold change (50 µM)
EXOC7_Q9UPT5_667_GFNDGLEELCK (UniProt Q9UPT5),-0.0337,-0.054
ERMP1_Q7Z2K6_222_DGAQHAVLANCHFDSVANSPGASDDAVSCSVMLEVLR (UniProt Q7Z2K6),0.537,0.318
